Data reported in paper PMC3796550.
Results are given in words; binding and its absence hold for the method and conditions named. Binding seen in cells or lysates may run through a third protein. Some entries that bind do so weakly or less than the wild type.

Protein sequences, listed by entry. Tags and fused reporters are not part of them. Lines headed by an entry give the natural chain unless they say otherwise; changes in a name come on top.
UniProt P06239: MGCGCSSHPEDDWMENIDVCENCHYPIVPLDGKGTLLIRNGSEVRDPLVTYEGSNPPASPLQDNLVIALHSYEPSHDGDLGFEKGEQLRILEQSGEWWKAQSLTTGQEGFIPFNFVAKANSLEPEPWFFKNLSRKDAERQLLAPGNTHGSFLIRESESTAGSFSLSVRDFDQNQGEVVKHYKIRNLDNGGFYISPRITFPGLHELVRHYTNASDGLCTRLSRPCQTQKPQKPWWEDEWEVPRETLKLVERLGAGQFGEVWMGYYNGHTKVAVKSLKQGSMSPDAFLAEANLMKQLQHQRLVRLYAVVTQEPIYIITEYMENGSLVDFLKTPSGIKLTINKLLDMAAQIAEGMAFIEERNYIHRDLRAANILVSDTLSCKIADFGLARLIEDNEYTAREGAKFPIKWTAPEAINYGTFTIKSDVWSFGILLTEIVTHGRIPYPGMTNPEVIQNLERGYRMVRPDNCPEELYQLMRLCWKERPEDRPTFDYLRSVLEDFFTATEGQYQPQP
UniProt Q9BZS1: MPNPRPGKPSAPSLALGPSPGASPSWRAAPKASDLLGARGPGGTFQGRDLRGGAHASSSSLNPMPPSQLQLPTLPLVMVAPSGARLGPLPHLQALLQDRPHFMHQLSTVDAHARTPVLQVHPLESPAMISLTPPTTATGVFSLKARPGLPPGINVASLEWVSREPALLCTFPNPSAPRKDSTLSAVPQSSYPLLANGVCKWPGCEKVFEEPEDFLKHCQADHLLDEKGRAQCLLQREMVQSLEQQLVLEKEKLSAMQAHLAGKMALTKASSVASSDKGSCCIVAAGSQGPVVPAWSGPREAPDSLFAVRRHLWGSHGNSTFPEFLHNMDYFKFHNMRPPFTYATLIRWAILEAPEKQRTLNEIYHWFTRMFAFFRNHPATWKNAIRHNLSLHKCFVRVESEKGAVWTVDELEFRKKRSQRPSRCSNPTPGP

Key:
LCK Y505F (human) = LCK Y505F (human) (UniProt P06239); experiment: co-IP; lysates of transfected cells (MCF-7) immunoprecipitated with anti-Myc antibody, immunoblotted with anti-Myc and anti-FLAG
[1] = molecular target: LCK (pcDNA4/myc-His) (human) (UniProt P06239); experiment: as above

binding (LCK Y505F (human)): binds
binding [1]: binds
Substance: FOXP3-FLAG (from UniProt Q9BZS1 1-431)
